PubChem BioAssay AID1159600 – NIAID – 2016

Purpose: 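Which TLR pathway genes support TNF promoter activation by R848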 (primary screen)
System: human THP-1 TNF reporter clone B5, made macrophage-like with PMA
Reagents: single siRNA against human genes
Time to read-out: 4 h ligand stimulation, assayed 48 to 72 h after siRNA transfection
Challenge: R848 (TLR7/8 agonist) for 4 hours before lysis; dose not given
Measurement: 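Robust z-score of firefly over renilla TNF promoter signal after 4 h R848, plate median/MAD normalised, relative to negative controls, averaged across replicates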
Direction: TNF reporter z-score: higher = stronger TNF promoter reporter signal after R848
Hit rule: 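siRNAs graded by distance of mean z-score from zero in steps of 1, 1.5, 2 and 2.5; active calls sit at roughly -1.5 or below, or 1.5 or above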
Meaning of the calls: active = strong change in TNF reporter (up or down); inactive = little change
Shown is one part, drawn at random, of 756 deposited reagents. Of all reagents, 134 (18%) were called active. 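Active includes both reduced and increased reporter signal, though most active siRNAs reduce it; R848 dose unknown.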 A number with no mark means an inactive call. The numbers tell different reagents against one gene apart. Not stated in the record: the amount of reagent.

With PIK3CG #1, what was measured?
TNF reporter z-score: -0.51

What is on record for PIK3CG #2?
TNF reporter z-score: -0.79

Which result is listed for PIK3CG #3?
TNF reporter z-score: -0.126

For PIK3CG #4, what does the deposit list?
TNF reporter z-score: -0.392

For PIK3CG #5, what does the deposit list?
TNF reporter z-score: 0.33

For PIK3CG #6, what does the deposit list?
TNF reporter z-score: -1.16

With SIGIRR (single Ig and TIR domain containing) #1, what does the deposit list?
TNF reporter z-score: 0.441

How did the screen score SIGIRR (single Ig and TIR domain containing) #2?
TNF reporter z-score: -0.531

With SIGIRR (single Ig and TIR domain containing) #3, what does the deposit list?
TNF reporter z-score: -0.285

What did the screen give for SIGIRR (single Ig and TIR domain containing) #4?
TNF reporter z-score: -0.31

With SIGIRR (single Ig and TIR domain containing) #5, what was measured?
TNF reporter z-score: 1.41

With SIGIRR (single Ig and TIR domain containing) #6, what was measured?
TNF reporter z-score: 0.0189

With TOLLIP (toll interacting protein) #1, what does the deposit list?
TNF reporter z-score: -1.29

How did the screen score TOLLIP (toll interacting protein) #2?
TNF reporter z-score: -1.66 (active)

For TOLLIP (toll interacting protein) #3, how do the results read?
TNF reporter z-score: 1.06

How did the screen score TOLLIP (toll interacting protein) #4?
TNF reporter z-score: -1.15

How did the screen score TOLLIP (toll interacting protein) #5?
TNF reporter z-score: 0.474

For TOLLIP (toll interacting protein) #6, what does the deposit list?
TNF reporter z-score: -0.515

With JUN (Jun proto-oncogene, AP-1 transcription factor subunit) #1, what does the deposit list?
TNF reporter z-score: -0.754

What did the screen give for JUN (Jun proto-oncogene, AP-1 transcription factor subunit) #2?
TNF reporter z-score: -1

For JUN (Jun proto-oncogene, AP-1 transcription factor subunit) #3, what does the deposit list?
TNF reporter z-score: 0.341

For JUN (Jun proto-oncogene, AP-1 transcription factor subunit) #4, what was measured?
TNF reporter z-score: -0.0728

How did the screen score JUN (Jun proto-oncogene, AP-1 transcription factor subunit) #5?
TNF reporter z-score: 0.595

With JUN (Jun proto-oncogene, AP-1 transcription factor subunit) #6, what does the deposit list?
TNF reporter z-score: -2.33 (active)

For IRF5 (interferon regulatory factor 5) #1, what was measured?
TNF reporter z-score: -2.93 (active)

With IRF5 (interferon regulatory factor 5) #2, what was measured?
TNF reporter z-score: -1.09

With IRF5 (interferon regulatory factor 5) #3, how do the results read?
TNF reporter z-score: -0.816

With IRF5 (interferon regulatory factor 5) #4, what does the deposit list?
TNF reporter z-score: -0.26

For IRF5 (interferon regulatory factor 5) #5, how do the results read?
TNF reporter z-score: -1.17

What did the screen give for IRF5 (interferon regulatory factor 5) #6?
TNF reporter z-score: 0.573

With TLR6 (toll like receptor 6) #1, what was measured?
TNF reporter z-score: -0.923

How did the screen score TLR6 (toll like receptor 6) #2?
TNF reporter z-score: 0.473

For TLR6 (toll like receptor 6) #3, what was measured?
TNF reporter z-score: 0.823

For TLR6 (toll like receptor 6) #4, what does the deposit list?
TNF reporter z-score: 0.405

For TLR6 (toll like receptor 6) #5, how do the results read?
TNF reporter z-score: -0.127

How did the screen score TLR6 (toll like receptor 6) #6?
TNF reporter z-score: -0.51

How did the screen score TBKBP1 (TBK1 binding protein 1) #1?
TNF reporter z-score: -0.17

With TBKBP1 (TBK1 binding protein 1) #2, what does the deposit list?
TNF reporter z-score: -1.78 (active)

With TBKBP1 (TBK1 binding protein 1) #3, what does the deposit list?
TNF reporter z-score: -0.486

What is on record for TBKBP1 (TBK1 binding protein 1) #4?
TNF reporter z-score: 0.86

What is on record for TBKBP1 (TBK1 binding protein 1) #5?
TNF reporter z-score: 0.0271

What is on record for TBKBP1 (TBK1 binding protein 1) #6?
TNF reporter z-score: -0.103

How did the screen score MAPK12 (mitogen-activated protein kinase 12) #1?
TNF reporter z-score: -0.675

With MAPK12 (mitogen-activated protein kinase 12) #2, what does the deposit list?
TNF reporter z-score: -1.13

What is on record for MAPK12 (mitogen-activated protein kinase 12) #3?
TNF reporter z-score: 0.922

What did the screen give for MAPK12 (mitogen-activated protein kinase 12) #4?
TNF reporter z-score: 0.628

Which result is listed for MAPK12 (mitogen-activated protein kinase 12) #5?
TNF reporter z-score: -0.764

Which result is listed for MAPK12 (mitogen-activated protein kinase 12) #6?
TNF reporter z-score: -0.411

Hits, among the entries above:
TOLLIP (toll interacting protein) #2 → TNF reporter z-score = -1.66 (active)
JUN (Jun proto-oncogene, AP-1 transcription factor subunit) #6 → TNF reporter z-score = -2.33 (active)
IRF5 (interferon regulatory factor 5) #1 → TNF reporter z-score = -2.93 (active)
TBKBP1 (TBK1 binding protein 1) #2 → TNF reporter z-score = -1.78 (active)
